Out of some 330,000 compounds screened, about 7,700 (2.3%) were called active. This list was built around the results that the source calls inconclusive (neither active nor inactive); the mix of calls is not that of the screen. The call rests on the fitted dose curve; in most records, active means well fitted inhibition curve with a large enough effect; inconclusive means small, poorly fitted or top-dose-only effect, or effect the other way; inactive means flat fitted curve, though single readings scatter. Potencies of inconclusive entries are doubtful fits and often do not repeat.
Assay: qHTS screen for small molecules that inhibit ELG1-dependent DNA repair in human embryonic kidney (HEK293T) cells expressing luciferase-tagged ELG1; further: nearly all actives have a fitted effect of over 55% in size
Conditions: HEK293T ELG1-luciferase reporter, luminescence, 16 h, DNA damage induced by 5-fluorouridine; series mostly up to 46.1 µM
Outline: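 DMSO vehicle served as the neutral condition. Each well held 2,000 cells given 5-fluorouridine plus compound; after 16 hr at 37 °C/5% CO2, ONE-Glo was added and luciferase measured 30 min later.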
Potency means the concentration at half of the fitted maximal effect.

Row | SMILES | Potency
1 | COc1ccc(NC(=S)Nc2cnc3ccccc3c2)c(OC)c1 | inconclusive: 29.1 µM [inhibitor, partial curve, poor fit]
2 | O=C(Nc1ccccc1F)c1ccc(Br)o1 | inconclusive: 20.6 µM [activator, partial curve]
3 | O=C(Nc1ccn(C2CC(OC(=O)c3ccccc3)C(CO)O2)c(=O)n1)c1ccccc1 (centres undefined) | inconclusive: 16.4 µM [inhibitor, partial curve]
4 | Cn1c2ccccc2c(=O)n2c(=O)c3ccccc3cc12 | inconclusive: 13 µM [activator, partial curve]
5 | O=C(Nc1nnc(Cc2ccccc2)s1)c1cccnc1 | inconclusive: 18.3 µM [activator, single point]
6 | O=C(C[n+]1cc(-c2ccccc2)n2c1CCCCC2)c1ccc(Cl)cc1 | inactive
7 | O=S(=O)(c1ccccc1)N1CCCC1c1cccs1 (centres undefined) | inactive
8 | CC(=O)c1cccc(NC(=O)Nc2ccccc2)c1 | inconclusive: 2.91 µM [activator, single point]
9 | CCc1cc2c(C)ccc(C)c2nc1SCC(=O)Nc1c(C)[nH]c(=O)[nH]c1=O | inconclusive: 20.6 µM [activator, single point]
10 | N#C/C(=C\c1ccc(OCc2ccccc2)cc1)C(N)=O | inconclusive: 23.1 µM [activator, partial curve]
11 | COc1ccc(C(=O)NNC(=O)c2cccs2)cc1S(=O)(=O)N1CCOCC1 | inconclusive: 3.66 µM [activator, partial curve, poor fit]
12 | O=C1c2ccccc2C(=O)C1c1ccc(O)cc1 | inactive
13 | CN(C)c1ccc(C2Nc3cccc4cccc(c34)N2)cc1 | inconclusive: 16.4 µM [activator, partial curve]
14 | Cn1cc(Br)c(-c2cccc(NC(=O)CCC(=O)O)c2)n1 | inconclusive: 29.1 µM [inhibitor, single point]
15 | COc1ccc(S(=O)(=O)N2CCC(C(=O)NCC3CC3)CC2)cc1 | inactive
16 | O=C(c1ccccc1F)N1CCN(c2cccc(C(F)(F)F)c2)CC1 | inactive
17 | Nc1ccc(-c2cc(-c3cccc(N)c3)nc(-c3ccccc3)n2)cc1 | inconclusive: 29.1 µM [inhibitor, single point]
18 | Cc1ccc(S(=O)(=O)N(C)Cc2nc(-c3ccncc3)no2)cc1 | inconclusive: 18.4 µM [inhibitor, partial curve, poor fit]
19 | Cn1c(=O)c2c(nc(NCc3ccccc3)n2CCCc2ccccc2)n(C)c1=O | inconclusive: 20.6 µM [inhibitor, partial curve]
20 | Cc1c(Cl)cnc(NC(=O)COC(=O)C2CC2)c1Cl | inconclusive: 23.1 µM [activator, partial curve, poor fit]
21 | Cc1ccc(/C=C/C(=O)c2nc3ccccc3[nH]2)cc1 | inconclusive: 20.6 µM [activator, partial curve]
22 | Cc1cccc(N(Cc2cc3ccccc3[nH]c2=O)S(=O)(=O)c2ccccc2)c1 | inconclusive: 32.6 µM [inhibitor, single point]

Quoted at random: 4 entries already listed.
Row | SMILES | Potency
3 | O=C(Nc1ccn(C2CC(OC(=O)c3ccccc3)C(CO)O2)c(=O)n1)c1ccccc1 (centres undefined) | inconclusive: 16.4 µM [inhibitor, partial curve]
22 | Cc1cccc(N(Cc2cc3ccccc3[nH]c2=O)S(=O)(=O)c2ccccc2)c1 | inconclusive: 32.6 µM [inhibitor, single point]
11 | COc1ccc(C(=O)NNC(=O)c2cccs2)cc1S(=O)(=O)N1CCOCC1 | inconclusive: 3.66 µM [activator, partial curve, poor fit]
21 | Cc1ccc(/C=C/C(=O)c2nc3ccccc3[nH]2)cc1 | inconclusive: 20.6 µM [activator, partial curve]

(continued)

Row | SMILES | Potency
23 | CC(C)c1nnc(NC(=O)CC(C)c2ccccc2)s1 (centres undefined) | inactive
24 | O=C(c1ccccc1)c1nc[nH]c1C(=O)Nc1ccccn1 | inactive
25 | Cc1cc(-n2cnnn2)cc(C)c1S(=O)(=O)N(C)c1ccccc1 | inactive
26 | CCC(C)NC(=O)C1CCN(S(=O)(=O)c2ccc3nc4c(c(C(=O)O)c3c2)CCCCC4)CC1 (centres undefined) | inconclusive: 20.6 µM [activator, partial curve, poor fit]
27 | C[C@@H](C(=O)Nc1ccc2ccccc2c1)[C@H]1C[C@]1(C)[C@H](NC(=O)OCc1ccccc1)c1ccccc1 | inconclusive: 29.1 µM [inhibitor, single point]
28 | Cc1cccc(CN2CCC(C(=O)Nc3ccc(Oc4cccnc4)cc3)CC2)c1 | inconclusive: 32.6 µM [inhibitor, single point]
29 | COc1ccc(Cl)cc1NC(=O)CSc1nc(N2CCOCC2)nc(N2CCOCC2)n1 | active: 25.9 µM
30 | O=C(COc1ccc2ccc(=O)oc2c1)NCCc1c[nH]c2ccc(F)cc12 | inconclusive: 13 µM [inhibitor, partial curve, poor fit]
31 | Cc1ccc(NC(=O)COC(=O)Cn2c(C)csc2=O)c([N+](=O)[O-])c1 | inactive
32 | Nc1ccccc1SCCS(=O)(=O)c1ccc(Cl)cc1 | inactive
33 | Cc1ccccc1OCc1nc(-c2ccccc2)no1 | inconclusive: 18.4 µM [activator, partial curve, poor fit]
34 | Cc1cccc(NC(=S)N=Nc2c(O)n(CN3CCOCC3)c3ccccc23)c1C | inconclusive: 29.1 µM [activator, single point]
35 | CC(C)Cn1c(N)c(C(=O)COC(=O)c2c(F)cccc2F)c(=O)n(C)c1=O | inconclusive: 20.6 µM [inhibitor, partial curve]
36 | CCNC(=O)CSc1nnc(-c2cccc(S(=O)(=O)N3CCOCC3)c2)o1 | inactive
37 | Oc1ccc(C=Nc2ccccc2-c2nc3ccccc3[nH]2)cc1 | inconclusive: 14.6 µM [activator, partial curve]
38 | C=CCN(CC=C)C(=O)c1ccc(OC2CCN(C(C)=O)CC2)c(OC)c1 | inconclusive: 16.4 µM [activator, single point]
39 | COc1ccc(Br)cc1/C=C/C(=O)NCC(=O)O | inactive
40 | O=C(/C=C/c1ccccc1Cl)c1ccccc(=O)c1O | inconclusive: 25.9 µM [inhibitor, single point]
41 | O=S(=O)(c1ccccc1F)N1CCN(Cc2nc3ccccc3[nH]2)CC1 | inconclusive: 16.4 µM [inhibitor, partial curve]
42 | Oc1ccc(Br)cc1/C=N/n1c(COc2ccccc2)n[nH]c1=S | inactive
43 | CC(C)(CO)CNC(=O)CCc1nnc(Cc2ccc(-c3ccccc3)cc2)o1 | inconclusive: 20.6 µM [inhibitor, single point]
44 | CS(=O)(=O)N1CCc2cc(C(=O)N3CCOCC3)ccc21 | inconclusive: 23.1 µM [activator, partial curve, poor fit]
